Measured values published in PMC5297731.

Amino acid sequences for entries named in this document (tags omitted).
UniProt P61224: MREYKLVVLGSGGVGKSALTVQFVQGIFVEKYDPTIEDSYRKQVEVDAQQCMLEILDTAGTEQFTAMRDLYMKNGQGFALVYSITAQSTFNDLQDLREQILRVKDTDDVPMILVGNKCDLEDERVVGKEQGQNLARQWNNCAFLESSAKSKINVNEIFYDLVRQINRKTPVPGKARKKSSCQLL
UniProt P62820: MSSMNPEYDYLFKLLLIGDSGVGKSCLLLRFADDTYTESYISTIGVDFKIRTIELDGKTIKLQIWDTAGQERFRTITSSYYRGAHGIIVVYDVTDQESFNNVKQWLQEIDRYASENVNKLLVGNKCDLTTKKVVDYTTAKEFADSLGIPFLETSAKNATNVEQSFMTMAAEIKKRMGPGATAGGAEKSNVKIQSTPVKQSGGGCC
UniProt P62834: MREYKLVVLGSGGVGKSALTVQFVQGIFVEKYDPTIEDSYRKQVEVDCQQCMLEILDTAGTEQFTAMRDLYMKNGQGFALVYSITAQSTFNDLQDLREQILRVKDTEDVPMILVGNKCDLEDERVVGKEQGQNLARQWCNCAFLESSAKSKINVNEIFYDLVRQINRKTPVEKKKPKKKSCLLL
UniProt P61026: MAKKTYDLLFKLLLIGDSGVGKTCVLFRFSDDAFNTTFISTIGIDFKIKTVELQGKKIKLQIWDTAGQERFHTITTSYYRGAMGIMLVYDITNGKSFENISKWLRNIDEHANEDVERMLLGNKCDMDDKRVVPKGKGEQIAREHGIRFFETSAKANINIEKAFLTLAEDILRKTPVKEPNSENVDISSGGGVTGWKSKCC

Target: T1, Male Germ Cells Rab GTPase-Activating Protein (MGCRABGAP), FLAG-tagged (human) (UniProt Q8IYX1)
T1 sequence: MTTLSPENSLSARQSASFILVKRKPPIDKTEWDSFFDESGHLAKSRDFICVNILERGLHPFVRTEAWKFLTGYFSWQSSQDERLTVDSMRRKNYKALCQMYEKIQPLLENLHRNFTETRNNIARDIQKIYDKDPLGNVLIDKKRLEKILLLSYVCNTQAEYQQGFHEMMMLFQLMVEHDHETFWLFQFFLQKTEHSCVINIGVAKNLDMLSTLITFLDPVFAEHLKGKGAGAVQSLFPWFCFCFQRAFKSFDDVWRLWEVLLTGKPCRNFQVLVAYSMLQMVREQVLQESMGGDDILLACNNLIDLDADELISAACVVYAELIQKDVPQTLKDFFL
Test: affinity purification with mass spectrometry; lysates of cells transfected with pFLAG-MGCRABGAP immunoprecipitated with anti-FLAG antibody or mouse IgG control; immunoprecipitates digested with Lys-C and trypsin, nano LC-MS/MS (LTQ Orbitrap XL)

Row | binding | Substance
1 | binds | RAP1B (from UniProt P61224 1-184)
2 | binds | RAB1A (from UniProt P62820 1-205)
3 | binds | RAP1A (from UniProt P62834 1-184)
4 | binds | RAB10 (from UniProt P61026 1-200)

Results are given in words; binding and its absence hold for the method and conditions named. Binding seen in cells or lysates may run through a third protein. A yes stands for co-enrichment or nearness to the bait. Other partners may have been found. Sequences can lack the tags named with a protein.
